Laboratory results as given in the supplement of paper PMC6411743.
± gives the standard deviation of the averaged measurements. Only a part is listed here, and it is no random draw. Most entries show no effect beyond the scatter of the controls.

Sequences of proteins named here, by UniProt entry; tags and fusion partners are left off. A change or cut given only in a name is not applied to a line headed by its entry.
UniProt Q17RN3: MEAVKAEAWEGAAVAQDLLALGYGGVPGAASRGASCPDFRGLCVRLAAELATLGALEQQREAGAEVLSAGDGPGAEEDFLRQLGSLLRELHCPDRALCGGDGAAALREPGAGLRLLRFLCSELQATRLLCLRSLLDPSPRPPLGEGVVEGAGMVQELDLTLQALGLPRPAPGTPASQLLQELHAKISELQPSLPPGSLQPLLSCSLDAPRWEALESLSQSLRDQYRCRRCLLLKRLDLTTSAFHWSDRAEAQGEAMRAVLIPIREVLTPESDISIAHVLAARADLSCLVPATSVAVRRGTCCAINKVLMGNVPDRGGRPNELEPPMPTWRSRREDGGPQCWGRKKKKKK
UniProt Q14156: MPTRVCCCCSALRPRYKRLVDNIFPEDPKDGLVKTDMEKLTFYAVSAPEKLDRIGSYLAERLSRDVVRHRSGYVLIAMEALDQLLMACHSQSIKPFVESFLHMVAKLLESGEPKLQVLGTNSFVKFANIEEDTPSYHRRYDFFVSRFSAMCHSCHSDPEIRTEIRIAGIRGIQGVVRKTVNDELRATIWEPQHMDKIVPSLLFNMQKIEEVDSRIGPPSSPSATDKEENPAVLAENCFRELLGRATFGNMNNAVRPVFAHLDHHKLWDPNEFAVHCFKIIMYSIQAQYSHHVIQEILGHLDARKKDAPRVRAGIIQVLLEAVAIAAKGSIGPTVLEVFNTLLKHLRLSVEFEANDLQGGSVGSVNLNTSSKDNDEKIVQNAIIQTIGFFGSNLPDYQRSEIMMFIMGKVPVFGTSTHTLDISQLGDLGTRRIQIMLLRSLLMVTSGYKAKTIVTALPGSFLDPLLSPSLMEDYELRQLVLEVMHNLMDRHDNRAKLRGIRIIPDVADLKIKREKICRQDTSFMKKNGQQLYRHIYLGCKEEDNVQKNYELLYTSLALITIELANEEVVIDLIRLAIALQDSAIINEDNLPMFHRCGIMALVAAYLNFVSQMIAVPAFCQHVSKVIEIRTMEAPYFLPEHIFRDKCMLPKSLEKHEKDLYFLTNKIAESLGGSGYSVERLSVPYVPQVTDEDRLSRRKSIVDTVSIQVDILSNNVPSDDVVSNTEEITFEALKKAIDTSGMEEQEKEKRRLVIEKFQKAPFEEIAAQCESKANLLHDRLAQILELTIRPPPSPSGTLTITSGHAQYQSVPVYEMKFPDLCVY
UniProt Q15904, whole entry: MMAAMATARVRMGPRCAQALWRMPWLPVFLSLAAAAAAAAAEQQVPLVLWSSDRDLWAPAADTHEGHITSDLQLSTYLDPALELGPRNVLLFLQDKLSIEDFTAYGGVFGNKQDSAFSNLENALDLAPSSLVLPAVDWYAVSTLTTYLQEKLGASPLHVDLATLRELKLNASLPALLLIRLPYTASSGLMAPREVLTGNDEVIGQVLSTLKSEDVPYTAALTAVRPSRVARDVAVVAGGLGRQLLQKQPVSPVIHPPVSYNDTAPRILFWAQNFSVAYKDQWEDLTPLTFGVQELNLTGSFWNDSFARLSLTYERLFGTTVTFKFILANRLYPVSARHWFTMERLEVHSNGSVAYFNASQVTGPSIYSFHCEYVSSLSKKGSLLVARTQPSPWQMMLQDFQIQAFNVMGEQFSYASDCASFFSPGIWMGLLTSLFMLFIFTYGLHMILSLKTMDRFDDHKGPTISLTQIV
UniProt Q15758: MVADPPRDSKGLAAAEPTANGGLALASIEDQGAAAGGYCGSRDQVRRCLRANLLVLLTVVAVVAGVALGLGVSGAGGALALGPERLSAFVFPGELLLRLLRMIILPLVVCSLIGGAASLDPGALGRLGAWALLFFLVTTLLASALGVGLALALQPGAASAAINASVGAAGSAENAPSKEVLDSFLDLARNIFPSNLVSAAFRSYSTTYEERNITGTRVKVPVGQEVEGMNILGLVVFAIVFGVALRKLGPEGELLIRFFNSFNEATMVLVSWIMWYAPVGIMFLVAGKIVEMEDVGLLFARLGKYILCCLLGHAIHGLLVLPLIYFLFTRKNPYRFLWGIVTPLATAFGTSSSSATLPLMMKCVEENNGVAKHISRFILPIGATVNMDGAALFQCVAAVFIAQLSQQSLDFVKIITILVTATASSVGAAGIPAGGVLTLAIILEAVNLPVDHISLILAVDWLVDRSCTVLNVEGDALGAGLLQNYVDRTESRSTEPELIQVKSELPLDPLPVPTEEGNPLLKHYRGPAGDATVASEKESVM
UniProt Q14573, whole entry: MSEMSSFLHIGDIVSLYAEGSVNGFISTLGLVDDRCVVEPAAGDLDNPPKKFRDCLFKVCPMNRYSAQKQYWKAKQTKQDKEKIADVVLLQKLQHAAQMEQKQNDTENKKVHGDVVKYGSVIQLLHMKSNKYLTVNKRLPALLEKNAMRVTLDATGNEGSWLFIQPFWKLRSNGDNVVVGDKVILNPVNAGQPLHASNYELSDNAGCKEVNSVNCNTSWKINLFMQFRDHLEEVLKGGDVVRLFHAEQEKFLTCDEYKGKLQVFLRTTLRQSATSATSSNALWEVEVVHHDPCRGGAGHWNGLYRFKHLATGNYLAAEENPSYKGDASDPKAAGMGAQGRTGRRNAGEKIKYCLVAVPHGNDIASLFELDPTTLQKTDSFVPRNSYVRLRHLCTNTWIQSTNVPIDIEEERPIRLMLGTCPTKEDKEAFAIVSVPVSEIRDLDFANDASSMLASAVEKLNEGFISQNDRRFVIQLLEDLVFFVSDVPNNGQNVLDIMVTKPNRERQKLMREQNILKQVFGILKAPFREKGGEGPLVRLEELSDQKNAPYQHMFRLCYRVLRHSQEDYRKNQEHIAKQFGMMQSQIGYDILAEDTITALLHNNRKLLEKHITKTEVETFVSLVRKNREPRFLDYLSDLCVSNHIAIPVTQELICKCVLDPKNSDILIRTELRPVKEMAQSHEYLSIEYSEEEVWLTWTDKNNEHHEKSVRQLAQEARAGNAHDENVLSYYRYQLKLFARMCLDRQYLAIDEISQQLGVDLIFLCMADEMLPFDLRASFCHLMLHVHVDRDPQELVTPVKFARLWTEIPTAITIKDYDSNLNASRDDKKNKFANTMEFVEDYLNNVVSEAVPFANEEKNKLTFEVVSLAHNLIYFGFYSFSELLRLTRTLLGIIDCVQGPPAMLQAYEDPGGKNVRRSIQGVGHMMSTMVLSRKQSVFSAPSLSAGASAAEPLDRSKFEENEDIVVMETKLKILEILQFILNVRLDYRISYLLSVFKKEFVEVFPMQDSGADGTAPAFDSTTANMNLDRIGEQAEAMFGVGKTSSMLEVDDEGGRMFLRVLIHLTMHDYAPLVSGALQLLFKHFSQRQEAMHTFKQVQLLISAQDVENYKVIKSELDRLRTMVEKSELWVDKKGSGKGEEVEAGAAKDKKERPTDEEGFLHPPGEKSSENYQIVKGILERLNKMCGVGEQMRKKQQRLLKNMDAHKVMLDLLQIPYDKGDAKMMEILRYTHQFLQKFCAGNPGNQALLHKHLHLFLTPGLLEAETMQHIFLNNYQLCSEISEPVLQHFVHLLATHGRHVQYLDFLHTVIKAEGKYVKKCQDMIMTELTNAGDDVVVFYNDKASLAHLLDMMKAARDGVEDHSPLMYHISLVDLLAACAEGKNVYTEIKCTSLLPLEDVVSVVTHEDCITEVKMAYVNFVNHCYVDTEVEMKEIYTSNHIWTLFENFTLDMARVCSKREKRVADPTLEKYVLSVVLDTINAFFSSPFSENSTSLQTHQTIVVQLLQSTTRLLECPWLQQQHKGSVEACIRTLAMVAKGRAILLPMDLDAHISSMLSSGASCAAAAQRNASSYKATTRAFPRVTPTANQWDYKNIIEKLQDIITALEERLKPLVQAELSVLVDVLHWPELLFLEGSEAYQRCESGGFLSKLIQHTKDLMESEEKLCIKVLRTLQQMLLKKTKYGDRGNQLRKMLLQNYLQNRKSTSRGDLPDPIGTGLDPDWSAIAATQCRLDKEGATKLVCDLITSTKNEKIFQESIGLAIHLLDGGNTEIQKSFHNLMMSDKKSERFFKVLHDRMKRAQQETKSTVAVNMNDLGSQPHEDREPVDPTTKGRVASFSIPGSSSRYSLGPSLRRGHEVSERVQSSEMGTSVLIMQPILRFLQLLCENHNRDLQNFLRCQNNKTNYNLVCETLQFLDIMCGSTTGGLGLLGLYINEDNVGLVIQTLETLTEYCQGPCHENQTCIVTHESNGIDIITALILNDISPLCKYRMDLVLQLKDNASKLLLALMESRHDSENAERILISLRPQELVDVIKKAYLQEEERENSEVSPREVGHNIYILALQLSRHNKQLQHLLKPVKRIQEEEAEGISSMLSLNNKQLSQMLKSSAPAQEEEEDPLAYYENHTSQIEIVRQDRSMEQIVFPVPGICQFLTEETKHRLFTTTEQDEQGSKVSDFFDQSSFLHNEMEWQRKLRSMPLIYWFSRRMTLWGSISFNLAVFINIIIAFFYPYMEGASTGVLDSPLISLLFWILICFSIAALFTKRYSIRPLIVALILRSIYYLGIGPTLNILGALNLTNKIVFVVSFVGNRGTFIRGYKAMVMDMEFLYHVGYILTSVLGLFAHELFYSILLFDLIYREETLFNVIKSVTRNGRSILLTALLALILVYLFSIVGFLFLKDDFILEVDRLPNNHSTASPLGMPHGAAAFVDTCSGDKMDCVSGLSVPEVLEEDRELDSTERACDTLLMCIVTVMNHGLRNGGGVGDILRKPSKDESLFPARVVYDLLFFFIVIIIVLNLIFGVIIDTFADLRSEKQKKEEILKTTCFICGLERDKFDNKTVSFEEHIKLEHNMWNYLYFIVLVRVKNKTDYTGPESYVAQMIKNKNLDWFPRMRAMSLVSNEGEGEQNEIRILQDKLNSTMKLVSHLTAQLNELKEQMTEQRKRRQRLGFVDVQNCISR
UniProt Q15477, whole entry: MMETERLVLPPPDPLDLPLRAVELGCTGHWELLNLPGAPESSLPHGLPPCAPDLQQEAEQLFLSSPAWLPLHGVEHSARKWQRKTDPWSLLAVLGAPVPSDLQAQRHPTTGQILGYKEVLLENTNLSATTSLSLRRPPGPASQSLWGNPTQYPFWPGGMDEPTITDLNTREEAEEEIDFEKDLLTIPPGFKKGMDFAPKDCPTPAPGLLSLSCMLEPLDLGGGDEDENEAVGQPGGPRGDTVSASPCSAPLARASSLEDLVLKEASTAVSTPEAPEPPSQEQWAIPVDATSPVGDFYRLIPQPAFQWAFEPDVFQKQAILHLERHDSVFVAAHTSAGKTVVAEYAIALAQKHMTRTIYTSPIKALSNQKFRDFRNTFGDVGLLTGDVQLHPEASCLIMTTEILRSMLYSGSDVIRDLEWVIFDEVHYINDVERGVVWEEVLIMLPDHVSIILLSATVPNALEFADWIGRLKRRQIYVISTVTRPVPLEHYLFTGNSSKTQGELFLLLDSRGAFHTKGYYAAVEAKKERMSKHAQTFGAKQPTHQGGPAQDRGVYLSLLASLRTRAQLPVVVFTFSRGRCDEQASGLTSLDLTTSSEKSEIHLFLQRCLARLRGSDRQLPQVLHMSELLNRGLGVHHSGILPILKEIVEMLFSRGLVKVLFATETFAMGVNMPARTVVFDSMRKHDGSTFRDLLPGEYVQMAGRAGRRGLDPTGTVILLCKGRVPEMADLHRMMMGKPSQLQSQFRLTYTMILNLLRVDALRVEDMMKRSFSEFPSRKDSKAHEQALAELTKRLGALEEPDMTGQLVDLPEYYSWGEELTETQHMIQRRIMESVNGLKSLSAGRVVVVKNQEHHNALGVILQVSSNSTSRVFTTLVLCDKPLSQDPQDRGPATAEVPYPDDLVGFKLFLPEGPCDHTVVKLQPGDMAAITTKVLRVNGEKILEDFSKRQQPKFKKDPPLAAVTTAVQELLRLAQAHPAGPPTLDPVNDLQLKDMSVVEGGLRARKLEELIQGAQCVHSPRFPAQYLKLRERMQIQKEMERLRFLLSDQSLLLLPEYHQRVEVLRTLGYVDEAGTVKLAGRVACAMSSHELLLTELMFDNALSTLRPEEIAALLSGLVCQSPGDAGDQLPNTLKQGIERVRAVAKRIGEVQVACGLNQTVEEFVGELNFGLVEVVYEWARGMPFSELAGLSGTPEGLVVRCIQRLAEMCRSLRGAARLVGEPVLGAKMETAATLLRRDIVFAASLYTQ
UniProt Q3B7J2: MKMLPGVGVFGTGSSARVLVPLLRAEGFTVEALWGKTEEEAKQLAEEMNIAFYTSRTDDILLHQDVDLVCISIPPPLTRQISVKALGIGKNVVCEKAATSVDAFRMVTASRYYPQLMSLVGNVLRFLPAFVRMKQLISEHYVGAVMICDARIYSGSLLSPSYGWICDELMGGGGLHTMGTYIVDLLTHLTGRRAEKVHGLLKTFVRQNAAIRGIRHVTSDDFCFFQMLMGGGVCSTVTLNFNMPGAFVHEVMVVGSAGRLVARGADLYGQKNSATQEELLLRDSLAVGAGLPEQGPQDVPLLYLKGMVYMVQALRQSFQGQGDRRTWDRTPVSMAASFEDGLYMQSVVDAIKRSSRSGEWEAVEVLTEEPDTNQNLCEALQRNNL
UniProt Q49B96: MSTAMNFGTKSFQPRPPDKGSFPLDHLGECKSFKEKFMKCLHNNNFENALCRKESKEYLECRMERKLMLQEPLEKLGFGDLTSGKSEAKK

Compound: Nc1ncnc2c1ncn2[C@@H]1O[C@H](COP(=O)(O)OP(=O)(O)OP(=O)(O)O)[C@@H](O)[C@H]1O [adenosine triphosphate]
Test: NP40-soluble protein abundance relative to vehicle (solubility fold change) (ratio); higher = more soluble protein in presence of ATP
Method in brief: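 Jurkat crude lysate prepared with a Dounce homogeniser was treated at eight concentrations spanning 0.1 to 10 mM, 10 min at room temperature then 3 min at 37 °C. Solubilisation with 0.8% NP40 and benzonase and ultracentrifugation preceded TMT labelling of the supernatant for LC-MS/MS. Fold change against the detergent-processed vehicle was determined per replicate from vsn-normalised intensities, across three independent experiments.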

Target	NP40-soluble protein abundance (concentration: 0.1mM)	NP40-soluble protein abundance (concentration: 0.5mM)
Q15392 and related entries (UniProt Q3LIE7+Q15392)	1.01 ± 0.03	0.97 ± 0.011
MLEC (UniProt Q14165)	1.02 ± 0.053	1.02 ± 0.025
LARS2 (UniProt Q15031)	1.05 ± 0.075	1.03 ± 0.049
UniProt Q14680 and related entries	1.02 ± 0.056	1.1 ± 0.042
UniProt Q2TAY7	1.1 ± 0.1	1.05 ± 0.042
CBX2 (UniProt Q14781)	1 ± 0.091	1.07 ± 0.1
CCDC6 (UniProt Q16204)	0.966 ± 0.037	0.944 ± 0.038
UniProt Q14790-2|Q14790-4|Q14790-6|Q14790-9|Q14790-5	1.05 ± 0.056	1.07 ± 0.069
BRD3 (UniProt Q15059)	0.978 ± 0.036	1.04 ± 0.029
DGUOK (UniProt Q16854)	1.05 ± 0.1	1.03 ± 0.078
UniProt Q2M296 and related entries	1.09 ± 0.058	1.14 ± 0.2
KIF22 (UniProt Q14807)	1.11 ± 0.084	1.19 ± 0.053
UniProt Q16513 and related entries	1.069 ± 0.0066	1.06 ± 0.033
FAM98C (UniProt Q17RN3)	0.989 ± 0.039	0.949 ± 0.078
UniProt Q15046 and related entries	1.01 ± 0.044	1 ± 0.037
RRS1 (UniProt Q15050)	0.965 ± 0.12	0.956 ± 0.067
UniProt Q15154 and related entries	0.995 ± 0.04	1.01 ± 0.031
UniProt Q14156 and related entries	1.06 ± 0.077	0.983 ± 0.019
UniProt Q14257 and related entries	0.969 ± 0.026	0.976 ± 0.032
UniProt Q15262-2|Q15262-3|Q15262 and related entries	0.987 ± 0.022	0.942 ± 0.026
UniProt Q1ED39	0.976 ± 0.058	1.03 ± 0.027
HERC1 (UniProt Q15751)	1.05 ± 0.028	1.02 ± 0.054
TRIP13 (UniProt Q15645)	1.05 ± 0.06	1.05 ± 0.013
ATP6AP1 (UniProt Q15904)	0.948 ± 0.074	0.9504 ± 0.0065

Target	NP40-soluble protein abundance (concentration: 0.1mM)	NP40-soluble protein abundance (concentration: 0.5mM)
UniProt Q14CB8 and related entries	1.08 ± 0.077	1.26 ± 0.11
UniProt Q16829 and related entries	0.982 ± 0.033	0.939 ± 0.08
GNA13 (UniProt Q14344)	1.04 ± 0.064	1.07 ± 0.087
MCM6 (UniProt Q14566)	1.03 ± 0.065	0.989 ± 0.04
QPRT (UniProt Q15274)	0.974 ± 0.057	0.984 ± 0.047
HNRNPUL2 (UniProt Q1KMD3)	0.982 ± 0.074	1.03 ± 0.092
UniProt Q15003 and related entries	0.993 ± 0.019	1.02 ± 0.063
UniProt Q14684 and related entries	1 ± 0.025	1.01 ± 0.02
UniProt Q15120 and related entries	1.14 ± 0.061	1.32 ± 0.15
RAB11B (UniProt Q15907)	1.1 ± 0.16	1.03 ± 0.072
UniProt Q3ZAQ7 and related entries	0.936 ± 0.04	0.901 ± 0.079
UniProt Q15650 and related entries	0.992 ± 0.11	0.905 ± 0.093
UniProt Q17R31 and related entries	1.01 ± 0.047	1.01 ± 0.049
UniProt Q15018	1 ± 0.04	0.992 ± 0.051
ALG11 (UniProt Q2TAA5)	1.07 ± 0.16	0.997 ± 0.15
PLS1 (UniProt Q14651)	0.994 ± 0.04	0.981 ± 0.042
UniProt Q14653 and related entries	1.01 ± 0.036	0.995 ± 0.011
EXOSC7 (UniProt Q15024)	1.09 ± 0.1	1.06 ± 0.071
SEC23B (UniProt Q15437)	1.07 ± 0.063	1.03 ± 0.051
UniProt Q14554 and related entries	1.06 ± 0.026	1.05 ± 0.042
UniProt Q14697 and related entries	1.04 ± 0.068	1.01 ± 0.049
UniProt Q15257 and related entries	0.954 ± 0.044	0.978 ± 0.0086
UniProt Q15084 and related entries	0.97 ± 0.014	0.952 ± 0.053
UniProt Q16666 and related entries	1.08 ± 0.051	1.33 ± 0.051

Target	NP40-soluble protein abundance (concentration: 0.1mM)	NP40-soluble protein abundance (concentration: 0.5mM)
MORF4L2 (UniProt Q15014)	1.02 ± 0.039	1 ± 0.07
RALBP1 (UniProt Q15311)	1.04 ± 0.0038	1.08 ± 0.061
TTLL12 (UniProt Q14166)	1.1 ± 0.068	1.07 ± 0.088
PPP2R5D (UniProt Q14738)	0.976 ± 0.026	0.994 ± 0.049
UAP1L1 (UniProt Q3KQV9)	1.06 ± 0.095	1.06 ± 0.094
UniProt Q15599 and related entries	0.965 ± 0.066	0.94 ± 0.053
NCOA2 (UniProt Q15596)	0.985 ± 0.017	1.01 ± 0.031
UniProt Q15067-2	1.02 ± 0.049	0.989 ± 0.013
SLC1A5 (UniProt Q15758)	0.955 ± 0.033	0.889 ± 0.015
ZNF638 (UniProt Q14966)	1 ± 0.018	1.04 ± 0.054
UniProt Q15424 and related entries	0.985 ± 0.063	0.945 ± 0.048
UniProt Q14444	1.03 ± 0.023	1.04 ± 0.043
UniProt Q3V6T2 and related entries	1.01 ± 0.018	1.03 ± 0.055
HSDL1 (UniProt Q3SXM5)	1.06 ± 0.11	1.02 ± 0.081
ACSF3 (UniProt Q4G176)	1.05 ± 0.079	1.06 ± 0.069
UniProt Q15642-2|Q15642-3|Q15642-4|W4VSQ9	0.985 ± 0.084	0.979 ± 0.049
UniProt Q15788 and related entries	0.952 ± 0.028	0.982 ± 0.018
TOMM34 (UniProt Q15785)	0.946 ± 0.011	0.951 ± 0.032
UniProt Q15121 and related entries	0.904 ± 0.062	0.858 ± 0.072
POLA2 (UniProt Q14181)	0.999 ± 0.016	0.975 ± 0.024
UniProt Q16401 and related entries	1.02 ± 0.046	1.01 ± 0.022
UniProt Q15042 and related entries	1.04 ± 0.017	1.03 ± 0.052
UniProt Q16563-2|Q16563	0.897 ± 0.087	0.92 ± 0.066
UniProt Q15208	1.11 ± 0.038	1.1 ± 0.066

A second format for part of the listing above:
UniProt Q15424 and related entries
  NP40-soluble protein abundance (concentration: 0.1mM): 0.985 ± 0.063
  NP40-soluble protein abundance (concentration: 0.5mM): 0.945 ± 0.048
UniProt Q14444
  NP40-soluble protein abundance (concentration: 0.1mM): 1.03 ± 0.023
  NP40-soluble protein abundance (concentration: 0.5mM): 1.04 ± 0.043
UniProt Q3V6T2 and related entries
  NP40-soluble protein abundance (concentration: 0.1mM): 1.01 ± 0.018
  NP40-soluble protein abundance (concentration: 0.5mM): 1.03 ± 0.055
HSDL1 (UniProt Q3SXM5)
  NP40-soluble protein abundance (concentration: 0.1mM): 1.06 ± 0.11
  NP40-soluble protein abundance (concentration: 0.5mM): 1.02 ± 0.081

(further entries)

Target	NP40-soluble protein abundance (concentration: 0.1mM)	NP40-soluble protein abundance (concentration: 0.5mM)
E2F4 (UniProt Q16254)	0.956 ± 0.052	0.963 ± 0.078
C5orf22 (UniProt Q49AR2)	0.989 ± 0.046	1.01 ± 0.027
SLMAP (UniProt Q14BN4)	1.01 ± 0.011	0.985 ± 0.047
UniProt Q16539 and related entries	1.01 ± 0.04	1.02 ± 0.03
UniProt Q15555 and related entries	0.932 ± 0.017	0.918 ± 0.012
UniProt Q15398-3|Q15398	1.014 ± 0.0041	0.988 ± 0.057
ITPR3 (UniProt Q14573)	1.05 ± 0.052	1.03 ± 0.072
C2orf68 (UniProt Q2NKX9)	0.945 ± 0.022	0.9027 ± 0.0057
SURF2 (UniProt Q15527)	0.915 ± 0.071	0.886 ± 0.072
UniProt Q15583 and related entries	0.891 ± 0.07	0.909 ± 0.066
UniProt Q16643 and related entries	0.666 ± 0.028	0.612 ± 0.0096
SKIV2L (UniProt Q15477)	0.938 ± 0.029	0.9318 ± 0.0087
POLD3 (UniProt Q15054)	0.961 ± 0.065	0.992 ± 0.063
SUZ12 (UniProt Q15022)	1.08 ± 0.041	1.13 ± 0.044
MVP (UniProt Q14764)	0.99 ± 0.091	1.04 ± 0.082
UniProt Q15370	0.915 ± 0.041	0.929 ± 0.079
UniProt Q14CX7	1.06 ± 0.05	1.06 ± 0.047
UniProt Q147X3	0.989 ± 0.037	0.988 ± 0.032
UniProt Q14693 and related entries	1.01 ± 0.095	1.03 ± 0.043
UniProt Q3B7J2 and related entries	0.95 ± 0.1	0.971 ± 0.042
SAFB2 (UniProt Q14151)	0.992 ± 0.071	0.96 ± 0.051
EIF2B1 (UniProt Q14232)	0.9498 ± 0.008	0.947 ± 0.032
TWISTNB (UniProt Q3B726)	1.08 ± 0.023	1.09 ± 0.21
UniProt Q15910 and related entries	1.07 ± 0.044	1.17 ± 0.06

Target	NP40-soluble protein abundance (concentration: 0.1mM)	NP40-soluble protein abundance (concentration: 0.5mM)
COX19 (UniProt Q49B96)	1 ± 0.029	1.03 ± 0.099
BMS1 (UniProt Q14692)	0.956 ± 0.081	0.921 ± 0.053
GINS1 (UniProt Q14691)	0.9912 ± 0.0038	0.952 ± 0.064
UniProt Q3L8U1 and related entries	1 ± 0.016	1 ± 0.011
WDR43 (UniProt Q15061)	1.15 ± 0.29	1.016 ± 0.01
IAH1 (UniProt Q2TAA2)	1.03 ± 0.036	1.01 ± 0.037
UniProt Q15796 and related entries	1 ± 0.035	0.988 ± 0.046
TRMT5 (UniProt Q32P41)	1.03 ± 0.05	1.03 ± 0.039
UniProt Q14318-2|Q14318	0.996 ± 0.039	1.01 ± 0.028
UniProt Q16718 and related entries	0.889 ± 0.16	0.94 ± 0.15
NCOA6 (UniProt Q14686)	0.96 ± 0.024	0.969 ± 0.04
CWF19L2 (UniProt Q2TBE0)	1.03 ± 0.036	1.03 ± 0.03
UniProt Q14980 and related entries	1.01 ± 0.058	1.17 ± 0.088
PUS10 (UniProt Q3MIT2)	0.997 ± 0.067	1.1 ± 0.022
LASP1 (UniProt Q14847)	0.974 ± 0.045	1 ± 0.061
UniProt Q3B7T1	0.9772 ± 0.0078	1.01 ± 0.024
UniProt Q16537 and related entries	0.995 ± 0.054	1.02 ± 0.038
MAN2A1 (UniProt Q16706)	0.968 ± 0.067	0.949 ± 0.043
NCAPD2 (UniProt Q15021)	1.02 ± 0.019	1 ± 0.041
PAFAH1B3 (UniProt Q15102)	0.956 ± 0.04	0.89 ± 0.058
UniProt Q14558-2|Q14558	0.979 ± 0.063	1.07 ± 0.055
FSCN1 (UniProt Q16658)	1.05 ± 0.065	1.04 ± 0.068
BECN1 (UniProt Q14457)	0.988 ± 0.041	0.999 ± 0.057
TFDP1 (UniProt Q14186)	1.01 ± 0.056	1.06 ± 0.04
